# Test results reported in the supplement of paper PMC6411743.
# By UniProt entry, the sequences of proteins in these tests, tags left out. Where a name states a change or a piece, a line headed by the entry shows the natural chain unless it says otherwise.
# UniProt Q5TAX3: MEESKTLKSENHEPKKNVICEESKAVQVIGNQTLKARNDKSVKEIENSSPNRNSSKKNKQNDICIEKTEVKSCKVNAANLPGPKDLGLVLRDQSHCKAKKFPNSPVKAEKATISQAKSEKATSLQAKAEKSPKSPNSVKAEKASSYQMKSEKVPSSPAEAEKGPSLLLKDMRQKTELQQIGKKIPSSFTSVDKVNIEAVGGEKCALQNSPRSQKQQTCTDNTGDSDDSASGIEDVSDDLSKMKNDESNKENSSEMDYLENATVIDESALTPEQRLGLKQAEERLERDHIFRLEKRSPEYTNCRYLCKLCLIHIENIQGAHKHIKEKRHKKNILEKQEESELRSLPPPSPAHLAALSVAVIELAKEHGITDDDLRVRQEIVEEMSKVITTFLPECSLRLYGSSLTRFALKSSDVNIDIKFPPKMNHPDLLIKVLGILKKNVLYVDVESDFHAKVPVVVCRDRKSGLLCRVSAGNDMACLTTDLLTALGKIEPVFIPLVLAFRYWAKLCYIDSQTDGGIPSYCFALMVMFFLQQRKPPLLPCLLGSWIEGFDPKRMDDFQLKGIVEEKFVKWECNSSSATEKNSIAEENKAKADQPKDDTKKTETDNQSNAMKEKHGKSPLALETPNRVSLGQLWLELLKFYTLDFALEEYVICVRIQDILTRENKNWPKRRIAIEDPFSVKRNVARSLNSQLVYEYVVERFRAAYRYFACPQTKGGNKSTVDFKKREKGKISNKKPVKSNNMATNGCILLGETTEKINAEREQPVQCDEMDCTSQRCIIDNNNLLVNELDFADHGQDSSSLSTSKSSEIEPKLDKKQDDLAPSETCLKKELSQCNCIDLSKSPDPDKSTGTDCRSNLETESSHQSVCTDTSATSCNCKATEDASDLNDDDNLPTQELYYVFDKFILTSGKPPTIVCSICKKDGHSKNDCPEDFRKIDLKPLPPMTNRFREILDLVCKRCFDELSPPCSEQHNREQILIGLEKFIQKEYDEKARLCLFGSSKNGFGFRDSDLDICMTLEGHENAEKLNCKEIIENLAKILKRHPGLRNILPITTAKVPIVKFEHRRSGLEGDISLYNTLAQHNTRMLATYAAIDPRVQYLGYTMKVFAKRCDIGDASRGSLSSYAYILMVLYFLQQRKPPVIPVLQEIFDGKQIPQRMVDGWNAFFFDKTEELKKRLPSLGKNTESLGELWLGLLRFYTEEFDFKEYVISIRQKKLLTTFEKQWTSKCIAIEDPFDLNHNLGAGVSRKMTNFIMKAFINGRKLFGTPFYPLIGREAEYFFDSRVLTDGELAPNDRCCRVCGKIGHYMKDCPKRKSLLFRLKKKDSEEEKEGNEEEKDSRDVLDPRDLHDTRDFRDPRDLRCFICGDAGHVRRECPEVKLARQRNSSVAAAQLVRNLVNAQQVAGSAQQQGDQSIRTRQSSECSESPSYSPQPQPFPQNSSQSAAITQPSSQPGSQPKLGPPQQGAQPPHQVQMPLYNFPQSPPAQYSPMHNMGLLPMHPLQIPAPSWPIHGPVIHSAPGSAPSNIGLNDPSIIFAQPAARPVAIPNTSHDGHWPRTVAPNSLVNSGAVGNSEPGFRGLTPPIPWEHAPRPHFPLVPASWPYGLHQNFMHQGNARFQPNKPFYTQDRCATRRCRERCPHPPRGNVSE
# UniProt P31641: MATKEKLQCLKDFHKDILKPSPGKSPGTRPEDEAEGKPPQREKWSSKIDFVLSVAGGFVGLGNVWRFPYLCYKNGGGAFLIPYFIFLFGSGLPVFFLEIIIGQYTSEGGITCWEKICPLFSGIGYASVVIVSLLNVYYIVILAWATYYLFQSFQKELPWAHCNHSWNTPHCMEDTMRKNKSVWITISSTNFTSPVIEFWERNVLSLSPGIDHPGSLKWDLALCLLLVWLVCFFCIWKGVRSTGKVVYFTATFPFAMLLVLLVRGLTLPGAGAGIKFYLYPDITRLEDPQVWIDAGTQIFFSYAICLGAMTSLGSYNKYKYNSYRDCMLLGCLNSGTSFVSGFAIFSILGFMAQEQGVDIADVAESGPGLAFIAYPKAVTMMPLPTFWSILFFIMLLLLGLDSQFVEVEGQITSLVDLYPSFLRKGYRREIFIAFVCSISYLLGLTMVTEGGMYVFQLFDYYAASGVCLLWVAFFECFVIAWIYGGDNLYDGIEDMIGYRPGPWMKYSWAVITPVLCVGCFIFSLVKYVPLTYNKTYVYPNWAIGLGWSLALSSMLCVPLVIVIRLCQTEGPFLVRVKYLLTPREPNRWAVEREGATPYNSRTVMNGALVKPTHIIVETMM
# UniProt P51956: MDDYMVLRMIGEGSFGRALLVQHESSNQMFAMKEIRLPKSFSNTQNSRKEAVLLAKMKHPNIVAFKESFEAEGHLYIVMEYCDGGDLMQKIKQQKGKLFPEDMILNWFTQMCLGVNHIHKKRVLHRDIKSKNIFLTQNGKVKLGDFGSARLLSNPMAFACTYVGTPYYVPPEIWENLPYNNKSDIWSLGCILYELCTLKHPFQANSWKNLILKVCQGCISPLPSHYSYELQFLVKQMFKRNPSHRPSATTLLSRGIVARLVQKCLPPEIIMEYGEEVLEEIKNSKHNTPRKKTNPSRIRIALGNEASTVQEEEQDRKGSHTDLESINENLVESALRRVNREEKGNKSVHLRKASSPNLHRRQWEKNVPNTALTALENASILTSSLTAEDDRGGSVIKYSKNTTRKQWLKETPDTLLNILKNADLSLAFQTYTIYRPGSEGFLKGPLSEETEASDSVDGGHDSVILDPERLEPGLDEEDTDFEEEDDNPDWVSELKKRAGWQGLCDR
# UniProt Q14839: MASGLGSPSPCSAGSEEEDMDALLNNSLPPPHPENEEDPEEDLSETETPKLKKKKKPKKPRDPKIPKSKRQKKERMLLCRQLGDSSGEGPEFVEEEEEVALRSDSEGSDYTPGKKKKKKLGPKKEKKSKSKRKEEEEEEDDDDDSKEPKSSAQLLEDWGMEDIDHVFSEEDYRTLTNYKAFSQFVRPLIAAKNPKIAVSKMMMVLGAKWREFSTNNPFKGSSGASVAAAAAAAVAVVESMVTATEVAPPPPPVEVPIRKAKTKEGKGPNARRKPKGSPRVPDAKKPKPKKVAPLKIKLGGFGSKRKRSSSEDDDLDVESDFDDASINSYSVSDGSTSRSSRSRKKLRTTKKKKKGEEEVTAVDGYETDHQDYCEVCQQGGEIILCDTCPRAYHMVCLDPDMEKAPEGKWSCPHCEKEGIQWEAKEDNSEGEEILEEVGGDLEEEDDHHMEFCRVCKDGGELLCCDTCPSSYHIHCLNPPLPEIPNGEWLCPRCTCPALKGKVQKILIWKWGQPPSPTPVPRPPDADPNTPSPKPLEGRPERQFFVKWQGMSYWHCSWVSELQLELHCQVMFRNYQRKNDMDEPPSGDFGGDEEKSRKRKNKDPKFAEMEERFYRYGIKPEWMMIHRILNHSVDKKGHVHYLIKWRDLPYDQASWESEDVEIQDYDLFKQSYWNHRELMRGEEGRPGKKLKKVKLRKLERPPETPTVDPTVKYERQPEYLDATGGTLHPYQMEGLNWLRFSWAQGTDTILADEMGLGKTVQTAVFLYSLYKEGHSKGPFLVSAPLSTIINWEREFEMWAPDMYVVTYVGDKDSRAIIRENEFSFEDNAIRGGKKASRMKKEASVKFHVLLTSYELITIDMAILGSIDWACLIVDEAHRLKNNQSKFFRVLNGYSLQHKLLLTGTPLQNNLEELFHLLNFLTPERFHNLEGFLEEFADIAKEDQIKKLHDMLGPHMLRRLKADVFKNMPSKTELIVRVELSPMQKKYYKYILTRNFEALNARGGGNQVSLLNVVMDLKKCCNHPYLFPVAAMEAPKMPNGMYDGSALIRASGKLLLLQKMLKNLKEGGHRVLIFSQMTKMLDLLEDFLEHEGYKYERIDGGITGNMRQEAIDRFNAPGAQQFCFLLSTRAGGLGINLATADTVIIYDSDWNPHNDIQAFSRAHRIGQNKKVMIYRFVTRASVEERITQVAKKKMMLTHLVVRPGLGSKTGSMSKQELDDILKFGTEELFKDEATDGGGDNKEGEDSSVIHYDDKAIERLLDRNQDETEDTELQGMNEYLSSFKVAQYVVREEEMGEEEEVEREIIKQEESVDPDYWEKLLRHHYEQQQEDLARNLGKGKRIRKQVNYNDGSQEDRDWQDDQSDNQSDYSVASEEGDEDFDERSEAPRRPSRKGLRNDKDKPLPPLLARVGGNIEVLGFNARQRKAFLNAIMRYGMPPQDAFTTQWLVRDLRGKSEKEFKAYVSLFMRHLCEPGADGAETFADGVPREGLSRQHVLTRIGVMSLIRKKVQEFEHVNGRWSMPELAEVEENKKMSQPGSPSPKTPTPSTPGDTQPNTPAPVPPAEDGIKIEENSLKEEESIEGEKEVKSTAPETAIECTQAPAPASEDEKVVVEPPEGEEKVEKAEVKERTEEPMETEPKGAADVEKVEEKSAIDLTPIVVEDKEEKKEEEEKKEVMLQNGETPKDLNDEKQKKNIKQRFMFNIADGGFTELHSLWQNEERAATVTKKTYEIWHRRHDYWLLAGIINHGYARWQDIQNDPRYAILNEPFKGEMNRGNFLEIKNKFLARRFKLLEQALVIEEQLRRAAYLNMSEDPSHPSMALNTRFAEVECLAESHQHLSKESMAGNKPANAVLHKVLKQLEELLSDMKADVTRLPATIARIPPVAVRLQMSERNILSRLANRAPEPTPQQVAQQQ
# UniProt Q7Z3E5: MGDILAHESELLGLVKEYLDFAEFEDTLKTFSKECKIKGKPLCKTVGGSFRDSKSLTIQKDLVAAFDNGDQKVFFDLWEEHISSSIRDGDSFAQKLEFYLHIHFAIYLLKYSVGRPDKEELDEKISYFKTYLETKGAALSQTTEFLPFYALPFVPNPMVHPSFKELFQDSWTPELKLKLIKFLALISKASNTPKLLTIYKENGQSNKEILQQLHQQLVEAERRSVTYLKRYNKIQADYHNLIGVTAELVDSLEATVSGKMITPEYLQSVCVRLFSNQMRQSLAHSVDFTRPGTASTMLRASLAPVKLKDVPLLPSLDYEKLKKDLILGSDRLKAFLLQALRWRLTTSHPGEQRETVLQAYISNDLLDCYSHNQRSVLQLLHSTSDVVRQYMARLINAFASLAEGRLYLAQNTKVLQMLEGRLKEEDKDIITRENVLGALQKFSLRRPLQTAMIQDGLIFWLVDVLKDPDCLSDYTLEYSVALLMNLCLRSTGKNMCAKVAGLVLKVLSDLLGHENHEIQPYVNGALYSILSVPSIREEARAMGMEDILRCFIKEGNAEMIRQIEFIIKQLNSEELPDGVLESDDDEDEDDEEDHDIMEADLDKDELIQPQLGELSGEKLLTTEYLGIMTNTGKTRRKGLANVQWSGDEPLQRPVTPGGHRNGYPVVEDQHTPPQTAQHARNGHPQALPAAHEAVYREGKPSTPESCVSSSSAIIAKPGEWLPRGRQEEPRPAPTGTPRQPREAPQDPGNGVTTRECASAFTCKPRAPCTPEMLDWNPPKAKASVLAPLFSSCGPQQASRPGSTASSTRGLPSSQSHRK
# UniProt P81877: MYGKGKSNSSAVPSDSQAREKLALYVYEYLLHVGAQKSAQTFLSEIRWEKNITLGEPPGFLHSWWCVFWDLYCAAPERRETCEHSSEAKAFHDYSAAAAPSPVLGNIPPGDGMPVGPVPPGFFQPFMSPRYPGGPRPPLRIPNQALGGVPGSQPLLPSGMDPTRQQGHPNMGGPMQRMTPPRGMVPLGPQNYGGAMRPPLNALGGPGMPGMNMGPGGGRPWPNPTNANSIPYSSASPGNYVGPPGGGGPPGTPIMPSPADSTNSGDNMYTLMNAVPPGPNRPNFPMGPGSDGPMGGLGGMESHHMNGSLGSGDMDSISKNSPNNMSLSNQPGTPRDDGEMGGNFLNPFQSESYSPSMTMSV
# UniProt Q9BY42: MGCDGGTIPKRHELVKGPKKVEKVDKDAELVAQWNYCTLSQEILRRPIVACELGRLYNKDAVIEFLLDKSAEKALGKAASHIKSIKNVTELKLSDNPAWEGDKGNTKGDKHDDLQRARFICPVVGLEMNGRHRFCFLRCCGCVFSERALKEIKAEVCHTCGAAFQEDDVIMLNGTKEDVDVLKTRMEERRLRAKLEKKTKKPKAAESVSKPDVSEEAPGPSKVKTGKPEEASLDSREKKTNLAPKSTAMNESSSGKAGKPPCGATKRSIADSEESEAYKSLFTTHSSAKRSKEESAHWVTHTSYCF
# UniProt Q15005: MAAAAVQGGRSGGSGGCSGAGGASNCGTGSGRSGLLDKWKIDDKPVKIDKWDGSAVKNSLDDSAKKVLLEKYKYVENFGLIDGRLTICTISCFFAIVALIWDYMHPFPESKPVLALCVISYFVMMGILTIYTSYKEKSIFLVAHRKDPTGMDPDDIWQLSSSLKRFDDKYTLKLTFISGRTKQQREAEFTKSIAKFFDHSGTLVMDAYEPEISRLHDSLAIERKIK
# UniProt P49459, whole entry: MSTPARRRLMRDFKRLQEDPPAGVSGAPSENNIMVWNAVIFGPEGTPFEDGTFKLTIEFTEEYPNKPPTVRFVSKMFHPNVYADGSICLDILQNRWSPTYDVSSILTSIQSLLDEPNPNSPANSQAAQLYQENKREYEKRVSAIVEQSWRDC
# ± gives the standard deviation of the averaged measurements. The list shows a part of the results, in another mix than the full data. Most entries show no effect beyond the scatter of the controls.
# Compound: Nc1ncnc2c1ncn2[C@@H]1O[C@H](COP(=O)(O)OP(=O)(O)OP(=O)(O)O)[C@@H](O)[C@H]1O [adenosine triphosphate]
# Assay: NP40-soluble protein abundance relative to vehicle (solubility fold change) (ratio); higher = more soluble protein in presence of ATP
# Summary of the method: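 Eight concentrations, 0.1 to 10 mM, were tested on Jurkat crude lysate for 10 min at room temperature and then 3 min at 37 °C, in three independent experiments. The lysate was solubilised with 0.8% NP40 and benzonase, ultracentrifuged, and the supernatant TMT-labelled for LC-MS/MS. Each value is the fold change against the detergent-processed vehicle in its own replicate, from vsn-normalised intensities.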
Target,NP40-soluble protein abundance (concentration: 0.1mM),NP40-soluble protein abundance (concentration: 0.5mM)
A0A0C4DFM7|Q5TAX3 (UniProt Q5TAX3),1.02 ± 0.03,1.03 ± 0.07
A0A0C4DFV0|Q9H469 (UniProt Q9H469),1.01 ± 0.024,0.978 ± 0.11
A0A096LP59|P46100 and related entries (UniProt P46100),0.968 ± 0.015,0.967 ± 0.036
A0A087WY96|P31641 (UniProt P31641),0.944 ± 0.02,0.908 ± 0.071
A0A087WY58|P51956 and related entries (UniProt P51956),0.998 ± 0.028,0.9832 ± 0.0068
A0A087X0I4|M0QXB4 and related entries (UniProt O14579),1.02 ± 0.037,1.02 ± 0.012
A0A087WUB9|Q8WYA6 (UniProt Q8WYA6),0.988 ± 0.0086,1.01 ± 0.024
A0A0C4DGG9|Q14839 and related entries (UniProt Q14839),0.998 ± 0.032,1.04 ± 0.036
A0A087X1I8|Q7Z3E5 and related entries (UniProt Q7Z3E5),1.01 ± 0.049,1.01 ± 0.058
A0A087X159|P81877 and related entries (UniProt P81877),1.03 ± 0.083,0.941 ± 0.055
A0A0A0MQR2|Q9BY42 (UniProt Q9BY42),0.969 ± 0.018,1 ± 0.025
A0A087WUC6|E9PI68 and related entries (UniProt Q15005),0.969 ± 0.056,0.962 ± 0.035
A0A0A0MRP2|O14772 and related entries (UniProt O14772),1.14 ± 0.2,1.11 ± 0.23
A0A0D9SG71|P49459 (UniProt P49459),1.08 ± 0.062,1.05 ± 0.062
A0A087WVN1|Q5JPI9 (UniProt Q5JPI9),1.05 ± 0.0057,1.02 ± 0.055

# Copied from the list:
# A0A087WY58|P51956 and related entries (UniProt P51956) | NP40-soluble protein abundance (concentration: 0.5mM): 0.9832 ± 0.0068
# A0A087X0I4|M0QXB4 and related entries (UniProt O14579) | NP40-soluble protein abundance (concentration: 0.5mM): 1.02 ± 0.012
